Article PMC7276988, “Cryo-EM Structure of the Fork Protection Complex Bound to CMG at a Replication Fork” (Molecular Cell, 2020)
Results are given in words; binding and its absence hold for the method and conditions named. For some of these results: In cells and extracts the contact can be indirect. Some binding calls cover weakened binding; strength is not graded here.

Amino acid sequences for entries named in this document (tags omitted).
UniProt P29469: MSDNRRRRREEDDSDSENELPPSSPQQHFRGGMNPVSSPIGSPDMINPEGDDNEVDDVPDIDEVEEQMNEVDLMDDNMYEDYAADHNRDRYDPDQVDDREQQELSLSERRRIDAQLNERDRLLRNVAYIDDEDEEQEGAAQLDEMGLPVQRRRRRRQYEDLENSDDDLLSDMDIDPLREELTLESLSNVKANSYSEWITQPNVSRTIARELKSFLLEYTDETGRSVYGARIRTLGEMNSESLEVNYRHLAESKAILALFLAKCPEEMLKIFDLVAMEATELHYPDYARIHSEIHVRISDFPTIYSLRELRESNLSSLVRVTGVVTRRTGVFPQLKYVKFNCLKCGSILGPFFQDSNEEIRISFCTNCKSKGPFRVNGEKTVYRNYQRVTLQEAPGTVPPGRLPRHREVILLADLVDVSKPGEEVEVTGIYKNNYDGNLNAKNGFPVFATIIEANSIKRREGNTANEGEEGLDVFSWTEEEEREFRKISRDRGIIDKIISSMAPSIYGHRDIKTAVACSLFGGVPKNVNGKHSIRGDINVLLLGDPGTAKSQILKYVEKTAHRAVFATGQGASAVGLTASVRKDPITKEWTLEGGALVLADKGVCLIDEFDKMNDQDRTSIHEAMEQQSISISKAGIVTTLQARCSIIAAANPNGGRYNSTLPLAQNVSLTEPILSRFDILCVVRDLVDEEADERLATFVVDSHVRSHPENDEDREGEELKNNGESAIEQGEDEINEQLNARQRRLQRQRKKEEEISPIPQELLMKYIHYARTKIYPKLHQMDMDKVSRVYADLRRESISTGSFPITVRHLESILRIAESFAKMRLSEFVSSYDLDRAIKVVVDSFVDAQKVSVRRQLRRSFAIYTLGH

Columns and labels:
[1] = molecular target: T1, Cdc45-MCM-GINS (CMG) helicase (S. cerevisiae, UniProt P29469 1-868; P24279 1-971; P30665 1-933; P29496 1-775; P53091 1-1017; P38132 …); assay: co-sedimentation; 10-30% glycerol gradient without cross-linker; 0.5 μM CMG with 1.5 molar excess of fork DNA, Csm3/Tof1 (or mutant), Ctf4 and Mrc1; 500 μM AMP-PNP, 3 mM Mg(OAc)2, 150 mM NaOAc, pH 7.5; 200,000g, 4°C, 2 h; silver-stained SDS-PAGE of fractions; both purified
T1 construct: Mcm2, S. cerevisiae, subunit of MCM in CMG; Mcm3, S. cerevisiae, subunit of MCM in CMG; Mcm4, S. cerevisiae, subunit of MCM in CMG; Mcm5, S. cerevisiae, subunit of MCM in CMG; Mcm6, S. cerevisiae, subunit of MCM in CMG; Mcm7, S. cerevisiae, subunit of MCM in CMG; Cdc45, S. cerevisiae, subunit of CMG; Psf1, S. cerevisiae, subunit of GINS in CMG; Psf2, S. cerevisiae, subunit of GINS in CMG; Psf3, …

Cdc45 = molecular target: T2, Cdc45 (S. cerevisiae, UniProt Q08032 1-650); assay: cross-linking; XL-MS: co-expressed complex of CMG, Ctf4, Csm3/Tof1 and Mrc1, calmodulin eluate cross-linked with 100-fold excess of DSBU, 60 min, room temperature; trypsin, LC-MS/MS, MeroX; cross-links residues within about 30 Å
T2 construct: Cdc45, S. cerevisiae, subunit of CMG; source: S. cerevisiae, overexpressed, purified as part of CMG; in XL-MS part of the co-expressed, co-purified complex (yJY74)
T2 sequence: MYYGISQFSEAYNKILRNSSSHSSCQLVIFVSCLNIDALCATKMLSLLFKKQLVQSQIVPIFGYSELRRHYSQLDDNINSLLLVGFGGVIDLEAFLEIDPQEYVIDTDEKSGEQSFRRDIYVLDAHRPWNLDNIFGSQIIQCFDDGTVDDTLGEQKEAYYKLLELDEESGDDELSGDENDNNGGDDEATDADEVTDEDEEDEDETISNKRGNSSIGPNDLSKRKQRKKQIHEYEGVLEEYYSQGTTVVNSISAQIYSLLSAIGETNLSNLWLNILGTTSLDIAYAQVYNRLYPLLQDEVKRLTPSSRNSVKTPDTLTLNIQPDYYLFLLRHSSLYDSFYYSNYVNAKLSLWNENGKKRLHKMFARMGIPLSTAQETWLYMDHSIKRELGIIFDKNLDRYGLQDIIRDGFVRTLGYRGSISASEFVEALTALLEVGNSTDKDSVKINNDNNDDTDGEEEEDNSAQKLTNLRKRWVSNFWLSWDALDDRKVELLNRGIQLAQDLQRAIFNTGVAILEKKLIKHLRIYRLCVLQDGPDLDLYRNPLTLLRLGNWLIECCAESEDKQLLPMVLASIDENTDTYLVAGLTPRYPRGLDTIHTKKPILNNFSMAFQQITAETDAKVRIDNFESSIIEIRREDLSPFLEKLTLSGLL

Mcm2 (S. cerevisiae) = Mcm2 (S. cerevisiae) (UniProt P29469); assay: as above
Tof1 = molecular target: T3, Tof1 (S. cerevisiae, UniProt P53840 1-1238, phosphorylated (sites not given)); assay: as above
T3 construct: Tof1, S. cerevisiae; residues 13-781 are resolved in the map; The Tof1 chain of m2; source: S. cerevisiae, overexpressed with Csm3, purified as Csm3/Tof1; in XL-MS part of the co-expressed, co-purified complex (yJY74)
T3 sequence: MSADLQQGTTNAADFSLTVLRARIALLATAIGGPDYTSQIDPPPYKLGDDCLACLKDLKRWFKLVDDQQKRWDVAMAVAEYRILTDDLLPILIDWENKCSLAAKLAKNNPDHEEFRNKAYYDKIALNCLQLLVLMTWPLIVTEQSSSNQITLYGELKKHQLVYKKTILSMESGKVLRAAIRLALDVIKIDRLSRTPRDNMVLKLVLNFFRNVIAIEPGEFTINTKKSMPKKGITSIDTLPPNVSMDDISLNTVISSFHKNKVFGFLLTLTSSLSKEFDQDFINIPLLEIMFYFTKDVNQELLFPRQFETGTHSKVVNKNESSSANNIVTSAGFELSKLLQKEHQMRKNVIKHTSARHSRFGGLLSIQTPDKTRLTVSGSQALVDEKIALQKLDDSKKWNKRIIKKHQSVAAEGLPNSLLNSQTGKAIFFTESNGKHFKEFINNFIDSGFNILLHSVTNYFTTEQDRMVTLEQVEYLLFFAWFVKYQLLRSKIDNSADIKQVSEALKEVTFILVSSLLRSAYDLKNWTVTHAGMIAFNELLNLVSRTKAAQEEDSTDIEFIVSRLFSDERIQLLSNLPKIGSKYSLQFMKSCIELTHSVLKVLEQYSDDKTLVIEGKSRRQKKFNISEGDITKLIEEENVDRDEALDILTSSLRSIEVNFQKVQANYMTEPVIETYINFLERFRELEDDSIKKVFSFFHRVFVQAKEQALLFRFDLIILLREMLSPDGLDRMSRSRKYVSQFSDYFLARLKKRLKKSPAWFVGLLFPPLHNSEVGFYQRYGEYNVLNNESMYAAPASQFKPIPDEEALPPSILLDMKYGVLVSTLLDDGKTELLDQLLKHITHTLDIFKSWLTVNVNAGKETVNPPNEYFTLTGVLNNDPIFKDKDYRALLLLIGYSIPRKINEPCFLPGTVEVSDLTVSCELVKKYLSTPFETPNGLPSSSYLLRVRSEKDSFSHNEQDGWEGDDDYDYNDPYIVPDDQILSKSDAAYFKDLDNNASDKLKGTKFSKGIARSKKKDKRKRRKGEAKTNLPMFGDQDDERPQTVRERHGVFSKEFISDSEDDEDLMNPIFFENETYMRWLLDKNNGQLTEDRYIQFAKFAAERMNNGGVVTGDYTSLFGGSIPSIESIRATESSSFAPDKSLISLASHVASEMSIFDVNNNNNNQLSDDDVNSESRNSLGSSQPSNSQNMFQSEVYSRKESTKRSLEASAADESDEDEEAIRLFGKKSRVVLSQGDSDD

Measured: binding

B1: Mrc1 (natural protein, S. cerevisiae, UniProt P25588 1-1096, looked up)
chain: MDDALHALSSLTAKKRTTTYKKVAVPILDENDNTNGNGPNDIDNPPELTGNGFLFANATLNRVKNRLEGKKAPEQNHNNGKDRSENSLPTQLISNLYDGGEELEKSEVKDNSYSEKNVSSSFTQTQRIPVSIQQDKVFNVPIHSVNDGKPTQLIKEDGLVNETSQALKTPLTTGRPGATQRIDSSGATSQTQPIKSIEPQSQIITTSSNHSNALSPKIPIIPTELIGTSPLFQSIQNRGPDTQMDVPPQTAHDEDKTQAIGIPQATHQEQKTQIDTVAQTLQDEVPHTLKIREIQSELASEDSKREKARNVEYKKPQKPIPTKKFFSKESFLADFDDSSSNEDDDIKLENAHPKPVQNDDELHENKSVELNLTDETRINEKRVPLLSSYANNLKREIDSSKCITLDLDSDSDEYGDDDMDSIKLSKDESVLPISQLSKATILNLKARLSKQNQKLSQRPNKSKDPKVDHNVLLNTLRKASRKQILDHQKEVIETKGLKLEDMAKEKEIVENLLEQEILRNKRIRQKEKRREKLEENDFQLNAHDSGSDSGSESSGFALSGNEIADYESSGSENDNRRESDSEKEDDEIILKQKKSHHVKHIINESDSDTEVEAKPKEKADESLPKRIAINLGHYGDNIGEDTDKFQETNVLDTQNIEEVMAERNTIENEVKDDVYVNEEADEAIRRQLIDKEKLQLKQKEKEHEAKIKELKKRGVTNFFEMEAEESEDEWHGIGGADGEGSDDYDSDLEKMIDDYSKNNFNPHEIREMLAAENKEMDIKMINKILYDIKNGGFRNKRAKNSLELELSDDDEDDVLQQYRLKRRELMRKRRLEIGDDAKLVKNPKSSAFFESMVEDIIEYKNPFGAEEEYNLDITSTATDLDTQDNSINVGDNTGNNEQKPVDQKNKKVIISEDFVQKSLSFLKSNNYEDFETDKELSRIQHGNDEAIEDLYTLKQNSSIKSFTNSQTDSTTSKTVNTIIDLEKRPEDEDEVENGDTSLVGVFKHPSIIKSFASRTDINDKFKEGNKTVKILKSYKTVGSSKASITYMGKTRKLIAPKRKTEGSHRYHHDHHNKKMKMKTKTKSNKLFESGQDSFDN
notes: Mrc1, S. cerevisiae; printed as a 125 kDa protein; The FLAG purification is told for the separately purified protein; source: S. cerevisiae, overexpressed at 20°C, purified (anti-FLAG M2, Superose 6)
binds: all assays above
